Reference: US20050003008A1, “Method of in vivo drug targeting to solid tumors via acoustically triggered drug delivery in polymeric micelles” (priority 1997, published 2005)
Some results were stated once for a whole list of compounds, not compound by compound. At least one structure is not confirmed: it was looked up by name or label, or the drawing left a doubt.

Test system: MDR ovarian carcinoma A2780/ADR cells
Assay: Growth inhibition / cell kill of MDR ovarian carcinoma cells with Pluronic and ultrasound
Type: cell-based
Experimental: It should be noted that because of the cytostatic action of micelles, the inhibitory concentration IC50 values for drugs become meaningless; for example, upon 3-hour incubation with a drug-free 10% P-105 micelles followed by three days culturing in a PLURONIC-free RPMI 1640 medium, the growth inhibition of both sensitive and resistant cells exceeded 50%. […] For cases like this it would be more informative to compare, e.g., IC75 values.
As an example, when the MDR cell were incubated with drug-free 10% PLURONIC micelles for three hours, upon which they were sonicated for 10 minutes by 69-kHz ultrasound at 3.2 W/cm^2 and cultured for 72 hours, the growth of the MDR cell dropped to forty percent of the unsonicated non-incubated control.
For the MDR cells, PLURONIC and ultrasound effects are especially important. At the absence of micelles, only about forty percent of the MDR cells are killed at DOX or Rb concentrations as high as 100 μg/ml. However, when the MDR cells were incubated with 5 μg/ml DOX for three hours in the presence of a unimeric Pluronic solution followed by a 10-minute sonication by 69-kHz ultrasound at 3.2 W/cm^2, sixty six percent of the cells died upon subsequent cell culturing vs. fifty three percent without ultrasound; only fifteen percent of the MDR cells die upon incubation with 5 μg/ml DOX without Pluronic and ultrasound treatment.
Ultrasound-induced increased intracellular uptake was accompanied by a dramatic sensitization of the MDR cells to the action of DOX (FIG. 10). […] Even without ultrasound, IC50 of DOX in the MDR ovarian carcinoma cells dropped 50-fold in the presence of PLURONIC unimers and micelles.

Row | SMILES | IC75 (P-105 10% (micelles)) | IC75 (RPMI (no Pluronic))
1 | COc1cccc2c1C(=O)c1c(O)c3c(c(O)c1C2=O)C[C@@](O)(C(=O)CO)C[C@@H]3O[C@H]1C[C@H](N)[C@H](O)[C@H](C)O1 [DOX, Doxorubicin] | 16 to 17 µg/mL | > 100 µg/mL
2 | COc1cccc2c1C(=O)c1c(O)c3c(c(O)c1C2=O)C[C@@](O)(/C(C)=N/N=C1CC(C)(C)N(O)C(C)(C)C1)C[C@@H]3O[C@H]1C[C@H](N)[C@H](O)[C@H](C)O1.Cl [Rb, ruboxyl] | 16 to 17 µg/mL | > 100 µg/mL
